Laboratory results published in PubChem BioAssay AID504834 (National Center for Advancing Translational Sciences (NCATS), 2011).
About 22,000 (6.9%) of roughly 320,000 compounds were called active. The shares of active, inactive and inconclusive entries below differ from those in the screen. Calls follow the shape of the dose curve; as a rule, active = well fitted inhibition curve with a large enough effect; inconclusive = small, poorly fitted or top-dose-only effect, or another doubt; inactive = no such curve, though single readings can be large or run the other way. Potencies beside an inconclusive call are fits to weak or partial responses and may not hold up.

Assay: Primary qHTS for delayed death inhibitors of the malarial parasite plastid, 96 hour incubation
Conditions: P. falciparum luciferase reporter growth; series mostly up to 28.7 µM; activity change, negative = inhibition: at the top concentration
Procedure, shortened: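 Parasite growth measured via integrated firefly luciferase reporter in P. falciparum. Infected erythrocytes at 2% hematocrit, 0.05% parasitemia final were treated 96 hours at 37 C under 5% CO2, and luminescence was read.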
% is scaled to controls: 0 for no effect and ±100 for the full control effect; potency is read from the fitted curve at half-maximal effect.

Structure (SMILES) | activity change, negative = inhibition | Potency
O=C(Cc1ccccc1)N1CCN(C(=O)c2ccco2)CC1 | inactive: -8.6% | –
CCOC(=O)N1CCN(C(=O)CSc2nc3c([nH]c4ccccc43)c(=O)n2CCOC)CC1 | – | active: 11.7 µM
CCCCc1ccc(/C(C)=N/NC(=O)C2CCCC2)cc1 | – | inconclusive: 10.4 µM [inhibitor, single point]
CN(c1ccccc1)c1nc(N)c([N+](=O)[O-])c(Nc2ccccc2)n1 | inactive: -40% | –
COc1cccc(C2C(C#N)=C(N)N(N(C)C)C3=C2C(=O)CCC3)c1 (configuration not stated) | inactive: -25.2% | –
COc1ccccc1NC(=O)C/C(C)=N/NC(=O)C12CC3CC(CC(C3)C1)C2 | – | inconclusive: 0.37 µM [inhibitor, single point]
Cc1ccc(Cl)cc1NC(C#N)c1ccccc1 (configuration not stated) | inactive: 13.7% | –
CC1CCN(C(=O)c2scc3c2OCCO3)CC1 | – | inconclusive: 0.262 µM [inhibitor, full curve, poor fit]
CCc1nonc1NC(=O)c1oc2ccc(C)cc2c1C | – | inconclusive: 5.22 µM [inhibitor, single point]
COc1cc(CN2CCN(Cc3ccc(SC)cc3)CC2)cc(OC)c1O | inactive: 11.7% | –
CN1C=CC(=CC=C2C=CC(=O)C=C2)C=C1 | – | active: 1.85 µM
O=c1[nH]ncc(NCc2ccc(Cl)cc2)c1Cl | – | inconclusive: 18.5 µM [inhibitor, partial curve, poor fit]
CCN(C(=O)CSc1nnnn1-c1ccccc1)c1c(N)n(Cc2ccccc2)c(=O)[nH]c1=O | inactive: 19% | –
O=C(CSc1nnc(NC(=O)C2CC2)s1)NCc1ccc(F)cc1 | inactive: 3.68% | –
O=C(C1CC1)N1CCc2cc(Br)cc(S(=O)(=O)N3CCN(c4ccccn4)CC3)c21 | – | inconclusive: 14.7 µM [inhibitor, partial curve, poor fit]
Cc1[nH]c2ccccc2c1C(=O)CN1C(=O)C(=O)N(CCC2=CCCCC2)C1=O | – | inconclusive: 8.28 µM [inhibitor, partial curve, poor fit]
Cc1c(C(=O)N2CCN(c3ccccc3)CC2)oc2c1C(=O)CC(C)(C)C2 | – | inconclusive: 14.7 µM [inhibitor, single point]
Cc1cc(C)n(CCN(C)C(=O)C2CCC(=O)N(CCc3cccc(F)c3)C2)n1 (configuration not stated) | – | inconclusive: 18.5 µM [inhibitor, single point]
COc1ccccc1NC(=O)Cn1nnc(C(=O)Nc2ccccc2)c1N | – | inconclusive: 11.7 µM [inhibitor, partial curve]
O=C(Cc1ccc(O)cc1)NC1CCCCCC1 | inactive: 142% | –
OCC(CBr)(CBr)CBr | inactive: 68.5% | –
C[C@@H](C[C@@H](O)[C@H](O)C(C)(C)O)[C@@H]1CC[C@]2(C)C3=CC[C@H]4C(C)(C)C(=O)CC[C@]4(C)[C@H]3CC[C@@]12C | – | inconclusive: 4.15 µM [inhibitor, single point]
O=C(C1CCN(S(=O)(=O)N2CCC3(CC2)OCCO3)CC1)N1CCN(Cc2ccccc2)CC1 | – | inconclusive: 13.1 µM [inhibitor, single point]
Cc1csc(=Nc2ccccc2)n1C | inactive: 28.2% | –

Structure (SMILES) | activity change, negative = inhibition | Potency
Nc1ccc(C(=O)OCc2nc3ccccc3s2)cc1 | inactive: 62% | –
Brc1ccccc1/C=N/Nc1ccc2ccccc2n1 | – | inconclusive: 18.5 µM [inhibitor, single point]
Cc1ccc(S(=O)(=O)n2cnc(C)c2)cc1 | – | inconclusive: 18.5 µM [inhibitor, single point]
CC(=O)NCCc1nc2ccccc2n1CCOc1ccccc1 | – | inconclusive: 18.5 µM [inhibitor, partial curve, poor fit]
CCCOC(=O)c1c(-c2ccc(OC)cc2)oc2ccc(-c3ccc(OC)nc3)cc12 | – | inconclusive: 18.5 µM [inhibitor, single point]
Cn1cc(CCC(=O)NC2CC2)c2ccccc21 | – | inconclusive: 5.86 µM [inhibitor, partial curve]
CCOc1ccc(NC(=O)CCC(=O)O)cc1 | – | inconclusive: 10.4 µM [inhibitor, single point]
CCOC(=O)c1[nH]c2ccccc2c1NC(=O)CC(C)(C)C | – | inconclusive: 18.5 µM [inhibitor, single point]
O=C(NC1CC1)c1ccc(N2CCCCC2)c([N+](=O)[O-])c1 | – | active: 2.62 µM
COc1cc(NC(=O)CNc2cccc(S(=O)(=O)N3CCCC3)c2)cc(OC)c1 | – | inconclusive: 9.28 µM [inhibitor, partial curve]
CCc1ccc(N2CC(O)(c3cccs3)[N+]3=C2SCCC3)cc1 (configuration not stated) | – | inconclusive: 0.0026 µM [inhibitor, full curve, poor fit]
CCCCNc1nc(=S)n(-c2ccccc2)c(C)c1C(C)=O | inactive: 10.3% [at 5.75 µM] | –
CC1(c2ccccc2)NC(=O)N(CC(=O)Nc2ccc(C(N)=O)cc2)C1=O (configuration not stated) | inactive: 5.64% | –
N#CC1=C2N=C(N)c3ccccc3N2C2=C(C(=O)CCC2)C1c1cccc(Cl)c1 (configuration not stated) | – | inconclusive: 18.5 µM [inhibitor, single point]
COc1ccc(-c2cc(C(=O)N3CCN(c4ccccc4O)CC3)c3ccccc3n2)cc1 | inactive: -114% | –
NNC(=O)c1ccc(CSc2nc3ccccc3[nH]2)cc1 | – | inconclusive: 3.7 µM [inhibitor, single point]
Cc1nc2sccc2c(=O)n1-c1cccc(Cl)c1 | inactive: 0.0646% | –
CCn1c(SCC(=O)Nc2ccc(OC)cc2)nc2nc3c(cc2c1=O)CCCC3 | inactive: -19.8% | –
COc1ccc(C(=S)NCS(=O)(=O)c2ccc(C)cc2)cc1 | inactive: 7.25% | –
COc1ccc(-n2cnc3cc(NC(=O)c4ccco4)ccc32)cc1 | – | active: 2.33 µM
Cc1cc(NS(=O)(=O)c2ccccc2)c(C)c(Cl)c1O | – | inconclusive: 18.5 µM [inhibitor, single point]
Cc1ccnc(Nc2nc(-c3c(C)nc4sccn34)cs2)c1 | – | inconclusive: 13.1 µM [inhibitor, single point]
COc1ccc(C(C)=O)cc1CC(=O)NC1CCCCCC1 | – | inconclusive: 18.5 µM [inhibitor, single point]
Cn1cccc1Cc1nnc(SCC(=O)Nc2cccc(F)c2)n1-c1ccc(F)cc1 | – | inconclusive: 5.22 µM [inhibitor, single point]

Structure (SMILES) | activity change, negative = inhibition | Potency
O=C(CSc1nnc(-c2ccc(Br)cc2)n1C1CCCCC1)N1CCCC1 | – | inconclusive: 18.5 µM [inhibitor, single point]
Cc1ccc(-c2nnn(CC(=O)N(CC(=O)NCC3CCCO3)c3ccccc3)n2)o1 (configuration not stated) | inactive: -24.3% | –
CCOc1ccc(N2Nc3n[nH]c(N)c3N2)cc1 | inactive: 243% | –
COc1ccc(C2/C=C\CN(C(=O)C3CCCCC3)CC(=O)N2Cc2ccc(F)cc2)cc1 (configuration not stated) | – | inconclusive: 18.5 µM [inhibitor, single point]
CC(C)CN(C(=O)COC(=O)c1ccc2c(c1)OCO2)c1c(N)n(Cc2ccccc2)c(=O)[nH]c1=O | – | inconclusive: 18.5 µM [inhibitor, single point]
COc1ccc(C)cc1S(=O)(=O)N1CCN(C(=O)c2ncoc2-c2ccccc2F)CC1 | inactive: 69.3% | –
CCOC(=O)c1ccc(S(=O)(=O)N2CCC(C(=O)NCc3ccccc3OC)CC2)cc1 | – | active: 8.28 µM
Cc1cccc(-c2noc(C(C)NC(=O)c3ccco3)n2)c1 (configuration not stated) | inactive: 20.8% | –
CCCCOc1ccc(/C=C/C(=O)N(CC)CC(=O)Nc2ccc3c(c2)OCCO3)cc1OC | – | inconclusive: 2.62 µM [inhibitor, partial curve, poor fit]
CC(C#Cc1c([C@@H](C)Oc2ccccc2)nnn1Cc1ccccc1)Oc1ccccc1 (some centres not stated) | – | active: 9.28 µM
Fc1ccc(Nc2nc(-c3ccncc3)nc3ccccc23)cc1F | – | inconclusive: 10.4 µM [inhibitor, single point]
CCCCCCCCC(=O)NC(NC(=S)N1CCOCC1)C(Cl)(Cl)Cl (configuration not stated) | – | inconclusive: 18.5 µM [inhibitor, single point]
O=C(CSc1nc2ccccc2c(=O)n1Cc1ccco1)NCCN1C(=O)CSC1=O | – | inconclusive: 0.0294 µM [inhibitor, full curve, poor fit]
CN1CCN(c2ccccc2NC(=O)c2ccc(OCc3ccccc3)cc2)CC1 | – | active: 13.1 µM
O/N=C/c1cn(-c2ccc(Cl)cc2)nn1 | inactive: 107% | –
CCC1(CC)C(=N)N(C)C(=O)NC1=O | – | inconclusive: 5.22 µM [inhibitor, partial curve, poor fit]
CCc1nnc(NC(=O)c2cccc(S(=O)(=O)N3CC(c4ccccc4)CC3=O)c2)s1 (configuration not stated) | – | inconclusive: 16.5 µM [inhibitor, partial curve, poor fit]
O=C(Cn1cnc([N+](=O)[O-])n1)N/N=C/c1cc(Cl)ccc1O | – | inconclusive: 18.5 µM [inhibitor, single point]
CCc1c(C)sc(NC(=O)c2ccco2)c1C(=O)N1CCCCC1 | – | inconclusive: 4.15 µM [inhibitor, partial curve, poor fit]
COc1ccc(C2C(C#N)=C(N)N(c3cccnc3)C3=C2C(=O)CCC3)cc1Cn1cc([N+](=O)[O-])cn1 (configuration not stated) | – | inconclusive: 10.4 µM [inhibitor, single point]
Cc1nn(-c2ccccc2)c2c1C(c1cccs1)C(C#N)=C(N)O2 (configuration not stated) | – | inconclusive: 4.65 µM [inhibitor, partial curve, poor fit]
Cc1ccccc1OCCC(=O)OCC(=O)Nc1c(C)nn(-c2ccccc2)c1C | inactive: 60.1% | –
O=[N+]([O-])c1ccc(N2CCCCC2)cc1N1CCOCC1 | – | inconclusive: 1.31 µM [inhibitor, single point]
COc1ccc(-c2csc(/C(C#N)=C(\O)CSc3nccn3C)n2)cc1OC | – | inconclusive: 18.5 µM [inhibitor, single point]

As entered above:
COc1ccc(C2C(C#N)=C(N)N(c3cccnc3)C3=C2C(=O)CCC3)cc1Cn1cc([N+](=O)[O-])cn1 (configuration not stated) – Potency: inconclusive: 10.4 µM [inhibitor, single point]
CC(C#Cc1c([C@@H](C)Oc2ccccc2)nnn1Cc1ccccc1)Oc1ccccc1 (some centres not stated) – Potency: active: 9.28 µM
CCOc1ccc(N2Nc3n[nH]c(N)c3N2)cc1 – activity change, negative = inhibition: inactive: 243%
CC(C)CN(C(=O)COC(=O)c1ccc2c(c1)OCO2)c1c(N)n(Cc2ccccc2)c(=O)[nH]c1=O – Potency: inconclusive: 18.5 µM [inhibitor, single point]
